{
  "source": "paper PMC12887176",
  "about": "“IRF1 is a context-dependent homeostatic gatekeeper of basal immunity and antiviral readiness”",
  "target": "T1, IRF1 DBD-mNeonGreen (UniProt P10914)",
  "T1 sequence (looked up)": "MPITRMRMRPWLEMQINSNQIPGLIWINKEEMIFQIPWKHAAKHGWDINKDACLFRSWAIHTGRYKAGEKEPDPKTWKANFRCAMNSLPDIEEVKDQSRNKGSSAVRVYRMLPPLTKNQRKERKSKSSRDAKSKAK",
  "experiment": "mass photometry",
  "conditions": "1:1 protein:DNA, slight increase to ~50 kDa, likely minor nonspecific interactions, 1:1 molar protein:DNA, 4 h at room temperature, protein lysed in PBS with 360 mM NaCl, 10% glycerol, DTT (assay buffers and pH not given), PBM: PBS, recombinant protein, residues 1-136, protein details: mNeonGreen fusion (42 kDa total)",
  "note": "For at least one entry, the source does not settle the construct or the ends of the probe. Weaker means in comparison with the reference protein, sequence or condition of that experiment. Tags and fusion partners may be left off the protein sequences shown.",
  "data": [
    {"sequence": "ATATTACGTCGCACTAGGATAGATCT (double strand) [scrambled DNA (NS)]", "values": [
      {"measurement": "binding result", "value": "binds more weakly"}
    ]}
  ]
}
